PubChem BioAssay AID686943 | Drosophila RNAi Screening Center | 2013
The screen tested about 23,000 reagents; below is a random part of those that have a named target and a result. 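Extra replicates exist only for a retested subset of genes; insulin dose and duration not given; both raised and lowered dpERK matter.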 Names joined by + are all predicted targets of the reagent. Reagent sequences are not shown. Not stated in the record: the amount of reagent, the time to read-out.

Assay: 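Search across the genome for regulators of signalling from receptor tyrosine kinase to ERK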 (primary screen)
Cells: Drosophila S2R+ haemocyte-like cells expressing YFP-tagged ERK (Rolled)
Knock-down reagent: long dsRNA against Drosophila genes
Challenge: insulin stimulation versus unstimulated cells; dose and duration not given
Measurement: 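Per-plate z-scores of phospho-ERK immunostaining normalised to YFP-tagged ERK, measured with and without insulin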
Reading the numbers: replicate 1, z-score of dpERK with insulin and replicate 2, z-score of dpERK with insulin: higher = more active ERK per ERK-YFP after insulin; replicate 1, z-score of dpERK under basal conditions: higher = more basal active ERK per ERK-YFP; replicate 1, z-score of ERK-YFP with insulin: higher = more YFP-tagged ERK signal

| gene | amplicon | replicate 1, z-score of dpERK with insulin | replicate 2, z-score of dpERK with insulin | replicate 1, z-score of dpERK under basal conditions | replicate 1, z-score of ERK-YFP with insulin |
| --- | --- | --- | --- | --- | --- |
| alpha-Catr (alpha-catenin related) | DRSC04669 | 1.12 | -0.33 | -0.03 | -0.97 |
| Uggt (UDP-glucose-glycoprotein glucosyltransferase) | DRSC11315 | -0.01 | -0.4 | 0.64 | 0.36 |
| CG17047 | DRSC06648 | 0.93 | 0.39 | 1.36 | -0.38 |
| Parp1 (Poly-(ADP-ribose) polymerase 1) | DRSC07725 | 0.32 | 0.59 | -0.3 | 0.53 |
| Parp1 (Poly-(ADP-ribose) polymerase 1) | DRSC07778 | 0.42 | 1.38 | 0.92 | 0.1 |
| Parp1 (Poly-(ADP-ribose) polymerase 1) | DRSC07780 | 0.48 | 0.51 | 1.1 | 0.35 |
| CR14798 (pseudo) | DRSC17956 | -0.09 | 0.49 | 0.81 | 0.27 |
| l(3)05822 (lethal (3) 05822) | DRSC16202 | -1.35 | 0.07 | -0.46 | 0.57 |
| SCaMC | DRSC10293 | 0.84 | 0.56 | 1.15 | 0.23 |
| SCaMC | DRSC10415 | 0.21 | -0.35 | -0.87 | -0.14 |
| CG15822 | DRSC08482 | -1.23 | -1.48 | -0.28 | 0.57 |
| CG15822 | DRSC08483 | -0.65 | -0.33 | -0.02 | 0.23 |
| t-Grip84 (testis-specific gamma-tubulin ring protein 84) | DRSC10904 | -0.06 | 0.78 | 0.77 | 0.02 |
| mfrn (mitoferrin) | DRSC15687 | -0.7 | -0.12 | -0.19 | 0.35 |
| VGlut (Vesicular glutamate transporter) | DRSC00733 | -0.1 | 0.79 | -0.32 | -0.24 |
| VGlut (Vesicular glutamate transporter) | DRSC21821 | 0.53 | 0.62 | -0.68 | 0.6 |
| CR41501 (pseudo) | DRSC07785 | 0.12 | -0.1 | -0.03 | 0.1 |
| Apl (Apollo) | DRSC10350 | 0.05 | -0.54 | -0.21 | -0.06 |
| pita | DRSC04006 | -1.13 | -0.67 | -0.32 | 0.42 |
| pita | DRSC04435 | 0.48 | -0.31 | 0.47 | 0.09 |
| CG9686 | DRSC18439 | -1.03 | -0.64 | 0.9 | 0.02 |
| Polr3F (RNA polymerase III subunit F) | DRSC15785 | -0.03 | -0.26 | -0.06 | -0.53 |
| Cpn (Calphotin) | DRSC16613 | 0 | -0.17 | -0.68 | 0.07 |
| CG12538 | DRSC14527 | 0.31 | -0.09 | 0.39 | 0.75 |
| CRIF (CR6-interacting factor) | DRSC11811 | -0.7 | -0.43 | 0.66 | 1.82 |
| comm (commissureless) | DRSC11336 | 1.49 | 1.51 | -1.56 | -0.02 |
| CG13202 | DRSC06326 | 0.53 | -0.08 | -0.81 | 0.1 |
| Cht7 + tRNA:Cys-GCA-1-4 + tRNA:Lys-CTT-1-13 | DRSC08021 | 0.67 | 0.5 | 1.28 | -0.24 |
| Myc | DRSC18762 | 0 | -4.36 | -2.94 | 0 |
| WASp | DRSC15032 | -0.14 | -0.02 | 0.06 | 0.35 |
| Pdxk (Pyridoxal kinase) | DRSC10419 | -0.76 | -0.25 | 0.56 | 0.08 |
| slmo + CG34179 | DRSC03143 | -1.39 | -0.75 | -0.81 | 0.34 |
| betaTub56D (beta-Tubulin at 56D) | DRSC07583 | -1.34 | -0.57 | 0.94 | -2.29 |
| GluRIIA (Glutamate receptor IIA) | DRSC03334 | 0.06 | 0.19 | 0.75 | -0.28 |
| Pdzd8 (PDZ domain containing 8) | DRSC19355 | 2.02 | 1.51 | 1.15 | -0.21 |
| l(1)G0289 (lethal (1) G0289) | DRSC18215 | 1.89 | 0.84 | -0.31 | -0.02 |
| mms4 (Methyl methanesulfonate sensitivity 4) | DRSC06249 | 0.42 | 0.1 | -0.51 | 0.23 |

In a second layout: results already given.
{"gene": "CG9686", "amplicon": "DRSC18439", "replicate 1, z-score of dpERK with insulin": -1.03, "replicate 2, z-score of dpERK with insulin": -0.64, "replicate 1, z-score of dpERK under basal conditions": 0.9, "replicate 1, z-score of ERK-YFP with insulin": 0.02}
{"gene": "Polr3F (RNA polymerase III subunit F)", "amplicon": "DRSC15785", "replicate 1, z-score of dpERK with insulin": -0.03, "replicate 2, z-score of dpERK with insulin": -0.26, "replicate 1, z-score of dpERK under basal conditions": -0.06, "replicate 1, z-score of ERK-YFP with insulin": -0.53}
{"gene": "Cpn (Calphotin)", "amplicon": "DRSC16613", "replicate 1, z-score of dpERK with insulin": 0, "replicate 2, z-score of dpERK with insulin": -0.17, "replicate 1, z-score of dpERK under basal conditions": -0.68, "replicate 1, z-score of ERK-YFP with insulin": 0.07}
{"gene": "CG12538", "amplicon": "DRSC14527", "replicate 1, z-score of dpERK with insulin": 0.31, "replicate 2, z-score of dpERK with insulin": -0.09, "replicate 1, z-score of dpERK under basal conditions": 0.39, "replicate 1, z-score of ERK-YFP with insulin": 0.75}
{"gene": "CRIF (CR6-interacting factor)", "amplicon": "DRSC11811", "replicate 1, z-score of dpERK with insulin": -0.7, "replicate 2, z-score of dpERK with insulin": -0.43, "replicate 1, z-score of dpERK under basal conditions": 0.66, "replicate 1, z-score of ERK-YFP with insulin": 1.82}
{"gene": "comm (commissureless)", "amplicon": "DRSC11336", "replicate 1, z-score of dpERK with insulin": 1.49, "replicate 2, z-score of dpERK with insulin": 1.51, "replicate 1, z-score of dpERK under basal conditions": -1.56, "replicate 1, z-score of ERK-YFP with insulin": -0.02}
{"gene": "CG13202", "amplicon": "DRSC06326", "replicate 1, z-score of dpERK with insulin": 0.53, "replicate 2, z-score of dpERK with insulin": -0.08, "replicate 1, z-score of dpERK under basal conditions": -0.81, "replicate 1, z-score of ERK-YFP with insulin": 0.1}

Continued.
| gene | amplicon | replicate 1, z-score of dpERK with insulin | replicate 2, z-score of dpERK with insulin | replicate 1, z-score of dpERK under basal conditions | replicate 1, z-score of ERK-YFP with insulin |
| --- | --- | --- | --- | --- | --- |
| lace | DRSC03564 | 1.29 | 2.63 | 0.3 | -0.22 |
| CG15145 | DRSC02446 | -0.19 | -0.1 | -0.53 | 0.24 |
| SppL (Signal peptide peptidase-like) | DRSC15228 | -0.08 | -0.06 | 0.19 | 0.28 |
| sloth2 + sloth1 | DRSC17922 | 0.26 | 0.13 | -0.27 | 0.04 |
| sloth2 + sloth1 | DRSC17923 | 0.6 | 0.75 | 1.23 | -0.02 |
| CG18011 | DRSC06697 | 0.66 | -0.16 | 0.19 | -0.56 |
| CG18011 | DRSC06706 | 0.64 | 0.54 | 0.53 | 0.86 |
| CG43338 | DRSC22055 | -2.25 | -3.6 | -2.17 | 1.02 |
| CG14340 | DRSC00370 | -0.31 | 0.37 | 0.3 | 0.37 |
| CG17754 | DRSC18131 | 0.77 | 0.3 | 0.05 | -0.24 |
| CG13078 | DRSC02182 | 1.28 | 0.26 | -0.15 | 0.33 |
| spz6 (spatzle 6) | DRSC04533 | -0.53 | 0.31 | 0.08 | 0.74 |
| Mcm3 (Minichromosome maintenance 3) | DRSC18679 | -1.08 | -0.86 | -0.67 | -0.14 |
| CG31827 + CG18478 | DRSC01958 | 0.29 | -0.4 | -0.19 | 0.16 |
| Kah (Kahuli) | DRSC07887 | 0.32 | -0.46 | 1.54 | 0.07 |
| Kah (Kahuli) | DRSC08515 | -0.38 | 0.24 | -0.52 | 0.56 |
| ninaB (neither inactivation nor afterpotential B) | DRSC16807 | -0.1 | 0 | -0.37 | 0.2 |
| Jheh1 (Juvenile hormone epoxide hydrolase 1) | DRSC06529 | -2.28 | -1.64 | 0.39 | 0.08 |
| wb (wing blister) | DRSC01375 | -5.86 | -4.29 | -3.11 | 0.25 |
| wb (wing blister) | DRSC03634 | -0.09 | 0.38 | 1.41 | 0.36 |
